The source of these data is PMC12672510.

Sequences of proteins named here, by UniProt entry; tags and fusion partners are left off. A change or cut given only in a name is not applied to a line headed by its entry.
UniProt Q13315: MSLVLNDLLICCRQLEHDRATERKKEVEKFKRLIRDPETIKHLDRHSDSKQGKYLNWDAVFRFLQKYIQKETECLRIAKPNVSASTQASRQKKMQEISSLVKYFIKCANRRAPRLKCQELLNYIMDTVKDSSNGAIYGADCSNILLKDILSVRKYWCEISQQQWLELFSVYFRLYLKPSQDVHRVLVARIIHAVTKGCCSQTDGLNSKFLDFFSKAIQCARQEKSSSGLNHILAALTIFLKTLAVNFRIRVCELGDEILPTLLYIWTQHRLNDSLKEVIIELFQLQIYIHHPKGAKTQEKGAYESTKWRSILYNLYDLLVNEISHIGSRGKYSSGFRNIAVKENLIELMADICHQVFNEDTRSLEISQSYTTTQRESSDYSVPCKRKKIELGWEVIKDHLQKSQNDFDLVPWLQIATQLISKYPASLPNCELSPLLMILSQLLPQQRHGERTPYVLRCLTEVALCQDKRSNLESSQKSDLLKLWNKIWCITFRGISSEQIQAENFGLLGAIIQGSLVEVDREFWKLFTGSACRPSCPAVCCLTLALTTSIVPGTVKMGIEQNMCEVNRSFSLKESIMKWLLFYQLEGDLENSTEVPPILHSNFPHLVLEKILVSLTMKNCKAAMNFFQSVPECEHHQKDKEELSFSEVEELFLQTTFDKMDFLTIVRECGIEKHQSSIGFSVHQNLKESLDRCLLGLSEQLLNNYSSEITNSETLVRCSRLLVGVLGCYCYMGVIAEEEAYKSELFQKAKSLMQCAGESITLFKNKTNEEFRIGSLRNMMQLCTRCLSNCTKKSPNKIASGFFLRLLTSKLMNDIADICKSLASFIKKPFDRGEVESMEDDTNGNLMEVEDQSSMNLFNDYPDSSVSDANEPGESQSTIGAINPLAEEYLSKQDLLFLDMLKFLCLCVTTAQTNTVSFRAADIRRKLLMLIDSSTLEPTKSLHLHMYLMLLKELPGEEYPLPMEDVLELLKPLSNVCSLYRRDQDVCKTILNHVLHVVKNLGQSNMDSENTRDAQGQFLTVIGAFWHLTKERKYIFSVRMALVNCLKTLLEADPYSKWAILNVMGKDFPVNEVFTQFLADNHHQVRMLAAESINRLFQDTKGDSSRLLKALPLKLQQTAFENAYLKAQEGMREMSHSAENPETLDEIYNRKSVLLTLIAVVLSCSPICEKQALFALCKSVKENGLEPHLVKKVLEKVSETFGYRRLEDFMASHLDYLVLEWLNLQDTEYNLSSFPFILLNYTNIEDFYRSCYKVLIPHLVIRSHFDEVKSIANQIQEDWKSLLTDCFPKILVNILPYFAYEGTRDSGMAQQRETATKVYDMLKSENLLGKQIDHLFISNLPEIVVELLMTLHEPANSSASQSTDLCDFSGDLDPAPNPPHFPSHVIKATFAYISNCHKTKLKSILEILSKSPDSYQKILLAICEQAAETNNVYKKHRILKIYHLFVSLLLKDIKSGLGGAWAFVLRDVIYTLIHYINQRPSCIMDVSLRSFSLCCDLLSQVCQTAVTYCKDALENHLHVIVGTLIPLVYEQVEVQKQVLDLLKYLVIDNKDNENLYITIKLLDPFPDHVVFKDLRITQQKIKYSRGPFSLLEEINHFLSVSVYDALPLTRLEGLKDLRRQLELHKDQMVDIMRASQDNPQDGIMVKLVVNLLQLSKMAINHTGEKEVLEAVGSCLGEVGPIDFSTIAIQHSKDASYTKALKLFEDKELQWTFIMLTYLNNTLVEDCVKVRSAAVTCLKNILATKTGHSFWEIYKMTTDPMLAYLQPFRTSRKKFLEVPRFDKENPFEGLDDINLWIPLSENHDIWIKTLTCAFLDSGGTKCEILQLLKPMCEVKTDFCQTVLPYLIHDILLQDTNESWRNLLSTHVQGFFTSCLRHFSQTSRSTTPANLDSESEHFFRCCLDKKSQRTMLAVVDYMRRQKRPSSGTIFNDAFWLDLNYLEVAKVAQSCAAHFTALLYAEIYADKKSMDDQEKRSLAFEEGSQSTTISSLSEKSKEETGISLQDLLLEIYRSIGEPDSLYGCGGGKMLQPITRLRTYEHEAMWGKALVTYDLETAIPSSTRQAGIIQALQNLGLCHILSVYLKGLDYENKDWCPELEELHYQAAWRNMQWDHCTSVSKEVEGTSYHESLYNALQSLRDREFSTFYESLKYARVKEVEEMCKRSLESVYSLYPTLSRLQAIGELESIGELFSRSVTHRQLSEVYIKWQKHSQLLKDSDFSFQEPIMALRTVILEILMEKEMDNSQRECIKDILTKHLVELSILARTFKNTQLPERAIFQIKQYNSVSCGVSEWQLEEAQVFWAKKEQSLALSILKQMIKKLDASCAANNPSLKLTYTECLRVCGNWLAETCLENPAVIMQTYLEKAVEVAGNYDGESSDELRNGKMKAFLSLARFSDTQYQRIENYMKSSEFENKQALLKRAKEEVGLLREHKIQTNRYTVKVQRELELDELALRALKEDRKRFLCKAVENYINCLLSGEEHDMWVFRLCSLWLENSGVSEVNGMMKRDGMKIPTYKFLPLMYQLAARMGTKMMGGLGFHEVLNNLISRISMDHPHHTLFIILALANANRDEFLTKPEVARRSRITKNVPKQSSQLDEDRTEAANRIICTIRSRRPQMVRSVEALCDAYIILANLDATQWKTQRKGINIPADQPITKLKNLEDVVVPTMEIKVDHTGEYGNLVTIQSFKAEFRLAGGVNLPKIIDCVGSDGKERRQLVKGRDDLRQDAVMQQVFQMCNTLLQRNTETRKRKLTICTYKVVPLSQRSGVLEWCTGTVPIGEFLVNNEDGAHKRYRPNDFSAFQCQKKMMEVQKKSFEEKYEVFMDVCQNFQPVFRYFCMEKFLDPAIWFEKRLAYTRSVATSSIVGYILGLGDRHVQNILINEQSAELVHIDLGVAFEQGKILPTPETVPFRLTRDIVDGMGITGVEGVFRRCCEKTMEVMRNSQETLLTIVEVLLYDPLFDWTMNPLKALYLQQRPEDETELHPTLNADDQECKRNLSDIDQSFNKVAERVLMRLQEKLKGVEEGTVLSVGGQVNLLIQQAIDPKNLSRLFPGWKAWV

This assay concerns the target Flag-His-ATM wt (ataxia-telangiectasia mutated, wild type) (UniProt Q13315). Put plainly: co-IP; anti-FLAG M2 affinity gel on lysates of transfected ATM KO 293T cells, with or without 100 µM MnCl2, lysates at 6 or 14 h after Mn; overnight at 4°C, washed four times with TBS; Western blot for ATM and TBK1.

No constants are given. Whether binding was seen depends on the method and setting. In cells and extracts the contact can be indirect. Some binding calls cover weakened binding; strength is not graded here. Tags and fused reporters may be left off the sequences shown.

B1: TANK-binding kinase 1 (TBK1), endogenous (enzyme, UniProt Q9UHD2 1-729)
chain: MQSTSNHLWLLSDILGQGATANVFRGRHKKTGDLFAIKVFNNISFLRPVDVQMREFEVLKKLNHKNIVKLFAIEEETTTRHKVLIMEFCPCGSLYTVLEEPSNAYGLPESEFLIVLRDVVGGMNHLRENGIVHRDIKPGNIMRVIGEDGQSVYKLTDFGAARELEDDEQFVSLYGTEEYLHPDMYERAVLRKDHQKKYGATVDLWSIGVTFYHAATGSLPFRPFEGPRRNKEVMYKIITGKPSGAISGVQKAENGPIDWSGDMPVSCSLSRGLQVLLTPVLANILEADQEKCWGFDQFFAETSDILHRMVIHVFSLQQMTAHKIYIHSYNTATIFHELVYKQTKIISSNQELIYEGRRLVLEPGRLAQHFPKTTEENPIFVVSREPLNTIGLIYEKISLPKVHPRYDLDGDASMAKAITGVVCYACRIASTLLLYQELMRKGIRWLIELIKDDYNETVHKKTEVVITLDFCIRNIEKTVKVYEKLMKINLEAAELGEISDIHTKLLRLSSSQGTIETSLQDIDSRLSPGGSLADAWAHQEGTHPKDRNVEKLQVLLNCMTEIYYQFKKDKAERRLAYNEEQIHKFDKQKLYYHATKAMTHFTDECVKKYEAFLNKSEEWIRKMLHLRKQLLSLTNQCFDIEEEVSKYQEYTNELQETLPQKMFTASSGIKHTMTPIYPSSNTLVEMTLGMKKLKEEMEGVVKELAENNHILERFGSLTMDGGLRNVDCL
Take B1: the binding result was “binds”.

B2: V5-His-TBK1 (overexpressed from pEF6/V5-His-TBK1) (enzyme, UniProt Q9UHD2 1-729)
chain: B1 chain
Take B2: the binding result is on record as “binds”.
